Some of these results come from one statement about several compounds together.
Assays:
Alternaria solani = experiment: Alternaria Test (Tomato)/Preventive; type: in vivo; details: preventive, 500 ppm of active ingredient, evaluated 7 days after inoculation
Pyrenophora teres = experiment: Pyrenophora Test (Barley)/Preventive; type: in vivo; details: preventive, 500 ppm of active ingredient, evaluated 7-9 days after inoculation

`CC(N(C(=O)c1cn(C)nc1C(F)F)C1CC1)C1(O)CCCc2ccccc21` (centres unmarked) [I.10, N-cyclopropyl-3-(difluoromethyl)-N-[1-(1-hydroxy-1,2,3,4-tetrahydronaphthalen-1-yl)ethyl]-1-methyl-1H-pyrazole-4-carboxamide] was tested, and the efficacy (Alternaria solani) was ≥ 70% and the efficacy (Pyrenophora teres) was ≥ 70%.
